Consider 26 molecules from publication PMC6553528, “An Interaction Network of the Human SEPT9 Established by Quantitative Mass Spectrometry” (G3: Genes|Genomes|Genetics, 2019).

Amino acid sequences for entries named in this document (tags omitted). A change or cut given only in a name is not applied to a line headed by its entry. Residues count along the entry.
UniProt Q03135: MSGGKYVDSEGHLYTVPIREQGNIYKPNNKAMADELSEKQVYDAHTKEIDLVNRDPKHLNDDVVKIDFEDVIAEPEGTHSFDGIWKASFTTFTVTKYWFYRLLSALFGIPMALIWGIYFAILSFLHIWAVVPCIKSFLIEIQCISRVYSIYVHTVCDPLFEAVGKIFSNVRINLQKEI
UniProt Q15746: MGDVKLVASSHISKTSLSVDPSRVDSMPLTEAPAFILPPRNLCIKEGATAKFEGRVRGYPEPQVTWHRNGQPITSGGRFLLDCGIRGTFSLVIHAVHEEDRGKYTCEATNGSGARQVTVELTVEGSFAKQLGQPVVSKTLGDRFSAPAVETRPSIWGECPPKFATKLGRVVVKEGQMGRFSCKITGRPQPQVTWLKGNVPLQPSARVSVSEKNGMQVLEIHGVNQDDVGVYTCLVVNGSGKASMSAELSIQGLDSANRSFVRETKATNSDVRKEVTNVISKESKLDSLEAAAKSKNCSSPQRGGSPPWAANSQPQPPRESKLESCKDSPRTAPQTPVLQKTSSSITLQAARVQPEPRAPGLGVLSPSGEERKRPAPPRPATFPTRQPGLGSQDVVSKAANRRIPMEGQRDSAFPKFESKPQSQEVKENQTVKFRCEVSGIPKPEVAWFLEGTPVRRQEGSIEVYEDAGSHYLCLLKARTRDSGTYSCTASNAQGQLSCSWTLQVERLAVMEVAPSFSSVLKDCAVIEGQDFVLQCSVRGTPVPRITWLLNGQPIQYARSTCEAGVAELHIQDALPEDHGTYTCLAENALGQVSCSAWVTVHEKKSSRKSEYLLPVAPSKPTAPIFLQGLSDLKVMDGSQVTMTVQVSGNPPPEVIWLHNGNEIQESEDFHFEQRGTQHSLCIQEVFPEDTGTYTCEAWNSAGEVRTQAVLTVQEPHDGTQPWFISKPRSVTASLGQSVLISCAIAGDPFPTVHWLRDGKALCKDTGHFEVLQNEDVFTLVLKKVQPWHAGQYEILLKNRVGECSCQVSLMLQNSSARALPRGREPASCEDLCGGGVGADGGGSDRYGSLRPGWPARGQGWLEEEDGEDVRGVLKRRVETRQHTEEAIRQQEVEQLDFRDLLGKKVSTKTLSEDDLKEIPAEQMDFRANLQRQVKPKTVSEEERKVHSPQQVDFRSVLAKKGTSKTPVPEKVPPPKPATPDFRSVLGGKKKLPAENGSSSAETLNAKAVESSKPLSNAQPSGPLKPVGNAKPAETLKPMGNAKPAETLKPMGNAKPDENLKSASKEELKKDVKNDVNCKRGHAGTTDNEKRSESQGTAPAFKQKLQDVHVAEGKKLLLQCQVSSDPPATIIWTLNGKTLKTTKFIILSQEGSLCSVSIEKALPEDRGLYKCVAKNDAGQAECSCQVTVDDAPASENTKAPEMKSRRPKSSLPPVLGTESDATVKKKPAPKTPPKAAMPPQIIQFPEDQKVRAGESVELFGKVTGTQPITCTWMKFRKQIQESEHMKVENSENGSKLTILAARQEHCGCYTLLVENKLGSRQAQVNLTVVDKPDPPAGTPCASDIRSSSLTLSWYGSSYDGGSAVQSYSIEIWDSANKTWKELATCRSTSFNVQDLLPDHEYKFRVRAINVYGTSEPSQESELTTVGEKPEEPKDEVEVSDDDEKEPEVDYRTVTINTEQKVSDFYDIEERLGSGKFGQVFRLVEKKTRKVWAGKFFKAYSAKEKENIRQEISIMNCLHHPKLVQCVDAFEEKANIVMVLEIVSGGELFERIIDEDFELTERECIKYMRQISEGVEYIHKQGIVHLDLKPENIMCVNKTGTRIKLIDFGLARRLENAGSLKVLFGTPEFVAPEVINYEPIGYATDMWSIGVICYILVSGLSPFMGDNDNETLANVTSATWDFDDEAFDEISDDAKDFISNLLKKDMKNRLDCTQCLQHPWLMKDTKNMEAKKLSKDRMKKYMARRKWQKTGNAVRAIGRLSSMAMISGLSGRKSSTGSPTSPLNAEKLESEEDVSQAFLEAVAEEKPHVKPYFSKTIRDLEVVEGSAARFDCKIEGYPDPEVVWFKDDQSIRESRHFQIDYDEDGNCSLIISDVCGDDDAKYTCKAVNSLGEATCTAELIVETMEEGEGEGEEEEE
UniProt O43707: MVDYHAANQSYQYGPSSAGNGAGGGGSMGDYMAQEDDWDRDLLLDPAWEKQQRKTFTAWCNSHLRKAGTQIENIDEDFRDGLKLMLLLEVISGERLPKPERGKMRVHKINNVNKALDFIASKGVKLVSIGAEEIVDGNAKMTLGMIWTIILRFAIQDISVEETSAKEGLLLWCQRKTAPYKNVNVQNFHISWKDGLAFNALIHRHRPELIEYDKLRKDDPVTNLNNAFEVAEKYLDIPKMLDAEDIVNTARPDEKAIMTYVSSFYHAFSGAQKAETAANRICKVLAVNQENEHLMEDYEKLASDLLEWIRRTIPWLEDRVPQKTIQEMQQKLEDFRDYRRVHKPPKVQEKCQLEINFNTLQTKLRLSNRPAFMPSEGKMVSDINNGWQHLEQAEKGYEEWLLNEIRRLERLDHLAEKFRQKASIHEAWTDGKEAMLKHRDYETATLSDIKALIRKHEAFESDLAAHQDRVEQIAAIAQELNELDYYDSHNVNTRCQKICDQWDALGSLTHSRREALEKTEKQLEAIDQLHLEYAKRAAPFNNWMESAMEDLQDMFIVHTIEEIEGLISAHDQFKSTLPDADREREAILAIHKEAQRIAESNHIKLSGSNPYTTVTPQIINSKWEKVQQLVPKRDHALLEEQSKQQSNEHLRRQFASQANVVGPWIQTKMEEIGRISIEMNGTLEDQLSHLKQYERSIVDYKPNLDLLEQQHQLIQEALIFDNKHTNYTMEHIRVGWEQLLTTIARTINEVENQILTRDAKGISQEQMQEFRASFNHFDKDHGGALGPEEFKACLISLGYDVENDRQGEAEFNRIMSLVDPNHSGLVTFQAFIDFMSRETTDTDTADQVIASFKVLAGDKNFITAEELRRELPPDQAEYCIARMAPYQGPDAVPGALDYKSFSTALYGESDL
UniProt P05362, residues 28-532: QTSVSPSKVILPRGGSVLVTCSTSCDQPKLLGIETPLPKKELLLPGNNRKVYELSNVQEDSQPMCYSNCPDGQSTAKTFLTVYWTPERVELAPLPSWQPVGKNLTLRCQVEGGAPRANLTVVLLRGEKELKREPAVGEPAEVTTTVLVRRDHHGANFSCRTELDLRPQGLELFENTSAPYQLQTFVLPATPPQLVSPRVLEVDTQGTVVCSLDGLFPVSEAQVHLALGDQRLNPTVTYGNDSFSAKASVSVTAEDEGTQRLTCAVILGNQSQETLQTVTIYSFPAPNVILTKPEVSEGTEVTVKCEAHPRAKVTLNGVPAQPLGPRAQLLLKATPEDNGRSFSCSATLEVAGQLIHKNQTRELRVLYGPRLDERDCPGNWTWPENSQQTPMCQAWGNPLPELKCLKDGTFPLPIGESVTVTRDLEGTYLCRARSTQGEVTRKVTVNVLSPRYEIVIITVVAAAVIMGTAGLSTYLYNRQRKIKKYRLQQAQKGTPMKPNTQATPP
UniProt P13987: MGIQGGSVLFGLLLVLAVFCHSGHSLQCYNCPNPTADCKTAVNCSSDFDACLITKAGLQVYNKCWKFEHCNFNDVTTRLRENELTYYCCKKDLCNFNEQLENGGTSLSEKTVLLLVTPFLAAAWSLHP
UniProt P15144: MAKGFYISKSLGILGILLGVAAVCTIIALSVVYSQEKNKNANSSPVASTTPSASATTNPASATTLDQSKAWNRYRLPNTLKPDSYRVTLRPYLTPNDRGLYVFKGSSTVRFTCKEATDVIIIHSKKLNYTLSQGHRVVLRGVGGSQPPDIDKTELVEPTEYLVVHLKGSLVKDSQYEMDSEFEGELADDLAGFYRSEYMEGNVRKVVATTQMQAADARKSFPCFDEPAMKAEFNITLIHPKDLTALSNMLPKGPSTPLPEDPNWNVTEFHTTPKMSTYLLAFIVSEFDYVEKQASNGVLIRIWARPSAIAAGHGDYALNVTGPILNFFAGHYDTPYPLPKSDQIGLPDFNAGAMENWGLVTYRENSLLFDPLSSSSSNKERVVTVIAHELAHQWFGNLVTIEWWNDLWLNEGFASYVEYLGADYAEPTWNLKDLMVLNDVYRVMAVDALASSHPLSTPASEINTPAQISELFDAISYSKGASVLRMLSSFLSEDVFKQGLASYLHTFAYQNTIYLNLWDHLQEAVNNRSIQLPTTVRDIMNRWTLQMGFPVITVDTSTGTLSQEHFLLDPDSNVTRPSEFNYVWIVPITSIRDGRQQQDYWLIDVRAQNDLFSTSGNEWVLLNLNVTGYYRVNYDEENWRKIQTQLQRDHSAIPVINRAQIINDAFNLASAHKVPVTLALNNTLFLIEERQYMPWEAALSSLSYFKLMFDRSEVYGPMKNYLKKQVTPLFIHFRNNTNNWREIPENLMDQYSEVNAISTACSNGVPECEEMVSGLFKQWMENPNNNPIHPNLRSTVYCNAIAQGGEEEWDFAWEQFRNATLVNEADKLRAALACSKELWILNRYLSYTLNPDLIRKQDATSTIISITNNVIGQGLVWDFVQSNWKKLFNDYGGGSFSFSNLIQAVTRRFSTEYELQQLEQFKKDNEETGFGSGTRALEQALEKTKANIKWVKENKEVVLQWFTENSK
UniProt O00161: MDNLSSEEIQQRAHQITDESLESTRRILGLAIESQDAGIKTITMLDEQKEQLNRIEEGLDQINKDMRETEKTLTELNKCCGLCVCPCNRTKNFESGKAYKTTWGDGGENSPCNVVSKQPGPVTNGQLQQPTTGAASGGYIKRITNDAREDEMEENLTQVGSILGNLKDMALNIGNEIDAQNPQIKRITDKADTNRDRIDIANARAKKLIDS
UniProt Q86WV6: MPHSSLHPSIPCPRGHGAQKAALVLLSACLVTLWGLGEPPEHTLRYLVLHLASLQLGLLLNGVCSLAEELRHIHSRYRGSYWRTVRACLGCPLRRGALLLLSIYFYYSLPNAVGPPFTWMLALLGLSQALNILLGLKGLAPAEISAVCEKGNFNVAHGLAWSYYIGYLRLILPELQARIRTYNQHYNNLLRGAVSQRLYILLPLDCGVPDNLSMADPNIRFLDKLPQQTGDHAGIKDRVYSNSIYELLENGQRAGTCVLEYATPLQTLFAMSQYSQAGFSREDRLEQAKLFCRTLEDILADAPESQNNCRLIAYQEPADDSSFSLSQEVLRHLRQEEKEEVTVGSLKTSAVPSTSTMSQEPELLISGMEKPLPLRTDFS
UniProt Q9UBI6: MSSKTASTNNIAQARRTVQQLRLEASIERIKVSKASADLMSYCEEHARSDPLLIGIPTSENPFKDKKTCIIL
UniProt Q8IYI6: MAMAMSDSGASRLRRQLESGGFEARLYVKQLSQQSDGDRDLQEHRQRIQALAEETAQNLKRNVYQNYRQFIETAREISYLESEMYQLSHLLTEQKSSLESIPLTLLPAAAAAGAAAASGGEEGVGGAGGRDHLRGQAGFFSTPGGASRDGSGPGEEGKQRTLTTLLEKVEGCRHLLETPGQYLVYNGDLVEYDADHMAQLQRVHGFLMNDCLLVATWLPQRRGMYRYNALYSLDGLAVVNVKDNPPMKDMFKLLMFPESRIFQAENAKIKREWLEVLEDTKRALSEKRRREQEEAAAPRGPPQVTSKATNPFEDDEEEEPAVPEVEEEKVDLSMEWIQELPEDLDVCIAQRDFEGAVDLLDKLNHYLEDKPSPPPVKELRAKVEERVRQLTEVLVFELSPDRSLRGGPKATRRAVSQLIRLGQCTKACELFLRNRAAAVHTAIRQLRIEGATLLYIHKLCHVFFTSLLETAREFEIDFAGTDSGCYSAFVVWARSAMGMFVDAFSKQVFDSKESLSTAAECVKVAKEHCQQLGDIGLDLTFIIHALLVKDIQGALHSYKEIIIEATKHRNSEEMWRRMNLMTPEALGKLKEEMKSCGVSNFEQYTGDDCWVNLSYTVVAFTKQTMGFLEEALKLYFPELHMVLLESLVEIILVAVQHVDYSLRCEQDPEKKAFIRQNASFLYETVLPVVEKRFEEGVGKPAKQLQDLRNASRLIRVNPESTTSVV
UniProt Q96FN4: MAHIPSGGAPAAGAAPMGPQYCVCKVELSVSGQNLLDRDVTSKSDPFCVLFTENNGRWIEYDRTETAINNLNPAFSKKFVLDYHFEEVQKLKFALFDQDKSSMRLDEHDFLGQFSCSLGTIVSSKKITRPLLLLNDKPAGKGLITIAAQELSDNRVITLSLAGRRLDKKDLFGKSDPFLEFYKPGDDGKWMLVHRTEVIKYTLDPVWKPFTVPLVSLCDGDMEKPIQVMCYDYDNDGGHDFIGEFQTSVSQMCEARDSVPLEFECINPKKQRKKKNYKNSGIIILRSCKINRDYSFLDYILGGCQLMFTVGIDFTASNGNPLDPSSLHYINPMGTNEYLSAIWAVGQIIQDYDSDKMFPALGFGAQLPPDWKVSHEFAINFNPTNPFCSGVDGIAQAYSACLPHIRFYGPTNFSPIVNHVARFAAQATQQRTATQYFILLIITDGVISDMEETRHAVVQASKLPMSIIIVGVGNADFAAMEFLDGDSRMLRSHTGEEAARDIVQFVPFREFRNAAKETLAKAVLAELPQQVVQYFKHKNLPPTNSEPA

No constants are given. Whether binding was seen depends on the method and setting. In cells and extracts the contact can be indirect. Here binding means that the protein was enriched with, or labelled near, the bait; the list need not be complete.

T1: TAP-SEPT9_i1 (human) (UniProt Q9UHD8)
T1 sequence: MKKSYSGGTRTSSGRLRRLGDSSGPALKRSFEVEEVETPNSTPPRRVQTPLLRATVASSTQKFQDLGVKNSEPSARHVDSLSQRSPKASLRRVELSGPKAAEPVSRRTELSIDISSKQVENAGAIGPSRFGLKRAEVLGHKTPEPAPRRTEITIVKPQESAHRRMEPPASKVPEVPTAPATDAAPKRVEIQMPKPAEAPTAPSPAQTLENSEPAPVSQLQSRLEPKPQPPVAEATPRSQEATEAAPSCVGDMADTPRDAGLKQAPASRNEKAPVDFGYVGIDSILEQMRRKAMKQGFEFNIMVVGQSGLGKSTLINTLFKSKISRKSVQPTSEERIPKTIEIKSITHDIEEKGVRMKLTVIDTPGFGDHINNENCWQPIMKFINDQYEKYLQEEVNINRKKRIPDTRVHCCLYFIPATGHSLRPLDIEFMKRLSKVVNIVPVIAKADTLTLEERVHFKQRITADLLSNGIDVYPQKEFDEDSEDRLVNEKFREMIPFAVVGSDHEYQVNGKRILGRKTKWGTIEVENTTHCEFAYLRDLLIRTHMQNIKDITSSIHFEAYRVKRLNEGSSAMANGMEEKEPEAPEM

B1: Ras-related protein R-Ras (protein, UniProt P10301 1-218)
chain: MSSGAASGTGRGRPRGGGPGPGDPPPSETHKLVVVGGGGVGKSALTIQFIQSYFVSDYDPTIEDSYTKICSVDGIPARLDILDTAGQEEFGAMREQYMRAGHGFLLVFAINDRQSFNEVGKLFTQILRVKDRDDFPVVLVGNKADLESQRQVPRSEASAFGASHHVAYFEASAKLRLNVDEAFEQLVRAVRKYQEQELPPSPPSAPRKKGGGCPCVLL

The assay has as its target T1, TAP-SEPT9_i1 (human). As to the kind of experiment: affinity purification with mass spectrometry; TAP-SEPT9 captured on human IgG-Sepharose from the cytoplasmic lysate of SILAC-labelled 1306 fibroblasts (overnight, 4 degrees); mixing after purification with the eluate of unlabelled GFP-SEPT9 cells as control; three replicates; hits by LOG2(H/L)>2 and Significance B.
“Caveolin-1;Caveolin (from UniProt Q03135 1-178)”: the binding result is “binds”. As to “Myosin light chain kinase (from UniProt Q15746 1-1914)”, the binding result is “binds”. With Myosin-10 (from UniProt P35580 1-1976), the binding result is recorded as “binds”. On to “CD109 antigen (from UniProt Q6YHK3 22-1420)”, for which the binding entry was “binds”. Under “Guanine nucleotide-binding protein G(k) subunit alpha (from UniProt P08754 1-354)” stands “binds”. Under “Zinc finger protein 106 (from UniProt Q9H2Y7 1-1883)” stands “binds”. On to “Alpha-actinin-4 (from UniProt O43707 1-911)”, for which the binding result is listed as “binds”.

Take “Unconventional myosin-Ib (from UniProt O43795 1-1136)”: the binding entry is recorded as “binds”. On to “Intercellular adhesion molecule 1 (from UniProt P05362 28-532)”, for which the binding entry was “binds”. Consider CD59 glycoprotein (from UniProt P13987), for which the binding entry was “binds”. On to “Fanconi anemia group I protein (from UniProt Q9NVI1 1-1328)”, for which the binding entry is given as “binds”. As to “Unconventional myosin-VI (from UniProt Q9UM54 1-1294)”, the binding entry was “binds”. In the case of “Aminopeptidase N (from UniProt P15144 1-967)”, the binding result was “binds”.

Consider “Tenascin-X (from UniProt P22105 24-4244)”, for which the binding entry was “binds”. Take “Protein LSM14 homolog B (from UniProt Q9BX40 1-385)”: the binding result is recorded as “binds”.

Turning to “Synaptosomal-associated protein 23 (from UniProt O00161 1-211)”, the binding entry was “binds”.

For the molecule “Stimulator of interferon genes protein (from UniProt Q86WV6 1-379)”, the binding result is listed as “binds”. Under “Guanine nucleotide-binding protein G(I)/G(S)/G(O) subunit gamma-12 (from UniProt Q9UBI6 1-72)” stands “binds”; under “Exocyst complex component 8 (from UniProt Q8IYI6 1-725)”, “binds”; under “Little elongation complex subunit 1 (from UniProt Q9Y2F5 1-2266)”, “binds”. For “Protein kinase C alpha type (from UniProt P17252 1-672)”, the binding result is reported as “binds”. As for “LIM domain and actin-binding protein 1 (from UniProt Q9UHB6 1-759)”, the binding result is recorded as “binds”. Consider “Zinc finger protein 185 (from UniProt O15231 1-689)”, for which the binding entry was “binds”. Take “Protein LSM14 homolog A (from UniProt Q8ND56 1-463)”: the binding result was “binds”. Under Copine-2 (from UniProt Q96FN4 1-548) stands “binds”; under B1, “binds”.
